Source: paper PMC12796736
No constants are given. Whether binding was seen depends on the method and setting. In cells and extracts the contact can be indirect. Here binding means that the protein was enriched with, or labelled near, the bait; the list need not be complete.

Sequences of proteins named here, by UniProt entry; tags and fusion partners are left off.
UniProt P18872: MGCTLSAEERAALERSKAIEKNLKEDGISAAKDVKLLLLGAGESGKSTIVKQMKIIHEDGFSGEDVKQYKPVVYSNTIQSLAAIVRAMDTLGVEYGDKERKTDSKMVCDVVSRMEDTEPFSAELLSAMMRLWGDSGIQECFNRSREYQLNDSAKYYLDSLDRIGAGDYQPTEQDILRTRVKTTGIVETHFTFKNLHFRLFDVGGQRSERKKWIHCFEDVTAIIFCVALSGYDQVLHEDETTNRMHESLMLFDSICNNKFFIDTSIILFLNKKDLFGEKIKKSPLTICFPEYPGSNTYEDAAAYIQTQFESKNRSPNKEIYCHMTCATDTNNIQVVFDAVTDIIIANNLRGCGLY
UniProt P60766: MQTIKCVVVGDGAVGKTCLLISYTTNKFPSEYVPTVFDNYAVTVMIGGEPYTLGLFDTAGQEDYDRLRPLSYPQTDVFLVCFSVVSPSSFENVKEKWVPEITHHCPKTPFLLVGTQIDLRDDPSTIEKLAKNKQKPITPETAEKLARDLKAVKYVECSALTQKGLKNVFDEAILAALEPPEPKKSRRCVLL
UniProt A2ALS5: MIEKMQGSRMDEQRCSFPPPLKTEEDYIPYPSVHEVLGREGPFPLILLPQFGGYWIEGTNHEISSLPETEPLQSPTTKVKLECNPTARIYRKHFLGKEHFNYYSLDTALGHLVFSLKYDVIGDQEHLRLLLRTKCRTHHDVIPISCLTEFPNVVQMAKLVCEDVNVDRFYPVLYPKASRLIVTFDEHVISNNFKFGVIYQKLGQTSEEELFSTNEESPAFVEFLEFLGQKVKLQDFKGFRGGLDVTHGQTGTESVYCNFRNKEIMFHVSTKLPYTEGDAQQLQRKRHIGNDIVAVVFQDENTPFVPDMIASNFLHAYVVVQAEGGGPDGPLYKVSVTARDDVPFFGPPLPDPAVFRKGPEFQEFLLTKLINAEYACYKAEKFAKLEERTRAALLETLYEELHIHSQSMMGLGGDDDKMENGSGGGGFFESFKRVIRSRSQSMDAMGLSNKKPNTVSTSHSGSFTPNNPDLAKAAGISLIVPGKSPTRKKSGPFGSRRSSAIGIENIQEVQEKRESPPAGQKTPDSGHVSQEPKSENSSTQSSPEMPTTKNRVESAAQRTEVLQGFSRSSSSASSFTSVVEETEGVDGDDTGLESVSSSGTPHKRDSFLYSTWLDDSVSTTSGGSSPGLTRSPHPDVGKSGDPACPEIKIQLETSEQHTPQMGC
UniProt Q80TL4: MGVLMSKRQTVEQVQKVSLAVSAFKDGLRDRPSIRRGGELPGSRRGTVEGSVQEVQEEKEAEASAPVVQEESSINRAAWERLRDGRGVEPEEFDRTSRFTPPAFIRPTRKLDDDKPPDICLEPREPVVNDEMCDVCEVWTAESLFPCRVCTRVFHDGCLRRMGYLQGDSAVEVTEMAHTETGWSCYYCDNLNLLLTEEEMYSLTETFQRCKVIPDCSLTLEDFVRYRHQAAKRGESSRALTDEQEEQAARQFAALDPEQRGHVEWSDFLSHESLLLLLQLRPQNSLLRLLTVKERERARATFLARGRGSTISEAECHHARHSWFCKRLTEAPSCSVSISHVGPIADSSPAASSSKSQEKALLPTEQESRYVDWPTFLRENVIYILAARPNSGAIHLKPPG

B1: GPR158 (receptor, UniProt Q8C419 25-1200)
chain: SLDPPGRPDSPRERTPRGKQHGQQLPRASAPDPSIPWSRSTDGTILAQKLAEEVPVDVASYLYTGDFHQLKRANCSGRYELAGLPGKSPSLASSHPSLHGALDTLTHATNFLNMMLQSNKSREQTVQDDLQWYQALVRSLLEGEPSISRAAITFSTESLSTPAPQVFLQATREESRILLQDLSSSAHHLANATLETEWFHGLRRKWRPHLHRRGSNQGPRGLGHSWRRRDGLGGDRSHVKWSPPYLECENGSYKPGWLVTLSAAFYGLQPNLVPEFRGVMKVDISLQKVDIDQCSSDGWFSGTHKCHLNNSECMPIKGLGFVLGAYQCICKAGFYHPRVFSVNNFQRRGPDHHFSGSTKDVSEETHVCLPCREGCPFCADDRPCFVQEDKYLRLAIISFQALCMLLDFVSMLVVYHFRKAKSIRASGLILLETILFGSLLLYFPVVILYFEPSTFRCILLRWARLLGFATVYGTVTLKLHRVLKVFLSRTAQRIPYMTGGRVMRMLAVIVLVVFWFLVGWTSSMCQNLERDILLVGQGQTSDHLTFNMCLIDRWDYMTAVAEFLFLLWGIYLCYAVRTVPSAFHEPRYMAVAVHNELIITAIFHTIRFVLASRLQPDWMLMLYFAHAHLTVTVTIGLLLIPKFSHSSNNPRDDIATEAYEDELDMGRSGSYLNSSINSAWSEHSLDPEDIRDELKKLYAQLEIYKRKKMITNNPHLQKKRCSKKGLGRSIMRRITEIPETVSRQCSKEDKEGTDHSAAKGTGLVRKNPTESSGNTGRPKEESLKNRVFSLKKSHSTYDHVRDQTVESSSLPMESQEEEATENSTLESLSSKKLTQKLKEDSEAESTESVPLVCKSASAHNLSSEKKPGHPRTSMLQKSLSVIASAKEKTLGLAGKTQTLVMEDRAKSQKPKDRETIRKYSNSDNVETIPNSGHMEEPRKPQKSGIMKQQRVSLPTANPDVSSGITQIKDNFDIGEVCPWEVYDLTPGPMPSEPKAQKHVSIAASEVEQNPASFLKEKSYHKSKATEGLYQANHKSIDKTEVCPWEIHSQSLLEDENRLISKTPVLPGRAREENGSQLYTTNMCAGQYEELPHKVVAPKVENENLNQMGDQEKQTSSSVDIIPGSCNSSNNSHQPLTSRAEVCPWEFEPLEQPNAERSVTLPASSALSANKIPGPQK
B2: GABAB receptor subunit GABABR2 (receptor, UniProt Q80T41 41-940)
chain: WARGAPRPPPSSPPLSIMGLMPLTKEVAKGSIGRGVLPAVELAIEQIRNESLLRPYFLDLRLYDTECDNAKGLKAFYDAIKYGPNHLMVFGGVCPSVTSIIAESLQGWNLVQLSFAATTPVLADKKKYPYFFRTVPSDNAVNPAILKLLKHFRWRRVGTLTQDVQRFSEVRNDLTGVLYGEDIEISDTESFSNDPCTSVKKLKGNDVRIILGQFDQNMAAKVFCCAFEESMFGSKYQWIIPGWYEPAWWEQVHVEANSSRCLRRSLLAAMEGYIGVDFEPLSSKQIKTISGKTPQQYEREYNSKRSGVGPSKFHGYAYDGIWVIAKTLQRAMETLHASSRHQRIQDFNYTDHTLGRIILNAMNETNFFGVTGQVVFRNGERMGTIKFTQFQDSREVKVGEYNAVADTLEIINDTIRFQGSEPPKDKTIILEQLRKISLPLYSILSALTILGMIMASAFLFFNIKNRNQKLIKMSSPYMNNLIILGGMLSYASIFLFGLDGSFVSEKTFETLCTVRTWILTVGYTTAFGAMFAKTWRVHAIFKNVKMKKKIIKDQKLLVIVGGMLLIDLCILICWQAVDPLRRTVERYSMEPDPAGRDISIRPLLEHCENTHMTIWLGIVYAYKGLLMLFGCFLAWETRNVSIPALNDSKYIGMSVYNVGIMCIIGAAVSFLTRDQPNVQFCIVALVIIFCSTITLCLVFVPKLITLRTNPDAATQNRRFQFTQNQKKEDSKTSTSVTSVNQASTSRLEGLQSENHRLRMKITELDKDLEEVTMQLQDTPEKTTYIKQNHYQELNDILSLGNFTESTDGGKAILKNHLDQNPQLQWNTTEPSRTCKDPIEDINSPEHIQRRLSLQLPILHHAYLPSIGGVDASCVSPCVSPTASPRHRHVPPSFRVMVSGL
B3: RASA2 (Ras p21 protein activator 2) (protein, UniProt P58069 1-847)
chain: MAAAAPAAAASPEAPAVSGSADPETGDEDSREVRVLQSLRGRIYEAKNLLPYLGPNKMRDCFCTINLDQEEVYRTQVVEKSLSPYFSEEFYFEIPRTFQYLSFYVYDKNVLQRDLRIGKVAIKKEDLCSHSGKETWFSLQPIDSNSEVQGKVHLELRLNELITENGTVCQQLVVHIKACHGLPLINGQSCDPYATVSLVGPSRNDQKKTKVKKKTSNPQFNEVFYFEVTRSSSYSRKSQFQVEEEDIEKLEIRIDLWNNENLVQDVFLGEIKVPVNVLRSDSFHQAWYLLQPRDNGNKSSKTDDLGSLLLTLCYTEDCVLPSEYYGPLKTLLLKSPDVQPVSASAAYILGEICQDQKDAVLPLVRLLLHHNKLVPFITAVAELDLKDTPDANAIFRGNSLATQCLTEMMKIVGGHYLKVTLKPVLDEICESSKSCEIDPVKLKEGDNVENNKENLYYYVDKVFNTIVGSSVSCPTVMCDIFYSLRQMAAKKFPNHPHVQYSAVSSFVFLRFFAVAILSPHAFHLRPHYPDTQTVRTLTLISKTIQIIGNWGCQSRKKSRFKKSVMCEFLKMFQEERYFTDVKKFLDEISSTETKESSGTSEPVHLKEGEMYKRAQGRTRIGKKNFKKRWFCLTSRELTYHRQQGKDAIYTIPVKNILAVEKLEEGSFNKKNMFQVIHTEKTLYIQANNCVEANEWIDVLCRVSRCNHNRLSSFHPSAYLNGNWLCCQETSESTPGCKPCTAGIPADIQIDIDEDRETERIYSIFTLSLLKLQKMEETCGSIAVYQGPQKEPGYSKFTIEDSVATFKTIQQIKSTIEKLDEPHEKYRKKRSSSAKYGSKENPIVGKIS
B4: RASA3 (Ras p21 protein activator 3), native, mouse brain (protein, UniProt Q60790 1-834)
chain: MAVEEEGLRVFQSVRIKIGEAKNLPSYPGPNKMRDCYCTVNLDQEEVFRTKIVEKSLCPFYGEDFYCEIPRSFRHLSFYIFDRDVFRRDSIIGKVAIQKEDLQRYHNRDTWFQLQHVDADSEVQGKVHLELRLSEVITDTGVVCHKLAARIFECQGLPIVNGQCDPYATVTLAGPFRSEAKKTKVKKKTNNPQFDEVFYFEVTRPCSYSKKSHFDFEEEDVDKLEIRVDLWNASNLKFGDEFLGELRLPLKILRHSSSYEAWYFLQPRDNGNKSLKPDDLGSLRLNVVYTEDHVFSSEYYSPLRDLLLKSADVEPVSASAAHILGEVCRDKQEAAIPLVRLLLHYGRVVPFISAIASAEVKRTQDPNTIFRGNSLTSKCIDETMKLAGMHYLHVTLKPTIEEICQSHKSCEIDPVKLKDGENLENNMESLRQYVDRIFTVITKSGVSCPTVMCDIFFSLREAAAKRFQDDLDVRYTAVSSFIFLRFFAPAILSPNLFQLTPHHTDPQTSRTLTLISKTIQTLGSLSKSKSASFKESYMATFYEFFNEQKYADAVKNFLDLISSSGRRDPKSIEQPILLKEGFMIKRAQGRKRFGMKNFKKRWFRLTNHEFTYQKSKGDQPLCNIPIENILAVERLEEESFRMKNMFQVIQPERALYIQANNCVEAKDWIDILTKVSQCNQKRLTVFHPSAYLNGHWLCCRASSDTAAGCTPCTGGLPANIQLDIDGDRETERIYSLFNLYMGKLEKMQEACGSKSVYDGPEQEEYSTFVIDDPQETYKTLKQVIAGVGTLEQEHAQYRRDKFKKTRYGSQEHPIGDKSFQNYIRQQSEISTHSI
B5: GRIN1 (G protein–regulated inducer of neurite outgrowth 1) (protein, UniProt Q3UNH4 1-932)
chain: MRDCCSSPKAIPAPPRHALDQSLGMDPRHTSSSGAAEGASCSERPAGSLACPSPNCSPLPETPRAHGALTSDNSGTTLFGKPEPMSSAEATPTASEIRNPVFSGKMDGNSLKQADSTSTRKEEAGSLRNEESMLKGKAEPMIYGKGEPGTVGRVDCTASGAENSGSLGKVDMPCSSKVDIVSPGGDNAGSLRKVETISSGKMDPKTENVMHSRRERPGSTGEGDLVSLRENDMKPPDNTDSASTKKTDPEFSGKLTPGSSGKTELVSSVTVAPVTSENVNPVCSGGAGPAAVGNSETLSSVKKDPQLLGKKEAVSSGEGGSVSVRMAETVSARQPEGMFPAKTDSTSSNSTGPSGRADPVSLRNSELVSPVKPERLSSGQAERVSLVKTETLSSGKEDPRSSRRVDHTTVTGNMQTSQKGNPESSGKTDLGSSSSGDTRSLGTWGSLSAAKAEVTEGKGDPQPWKKASLPASEKTDPLASSKAGSASQGKAETVSPGEVDAMTLGKTVPTSSGKTALVSPGKVDLMTSERAEGIPELQASEKGNPVNSTRVDTGATGSTEPKSGVKVITQIPGATSPGKVETPSLQKEQPQLSEKTDPSRKVDPPTTVEPVSLGKADSASPSPRKAESQTSAKTVPQAPDKATSSLRQSDGTPYSSAQPQRDTRSIGSLPEREPSASTSQKDLAAAAAQKSPSAEAAAPPPGPRTRDNFTKAPSWDAGAPPPREDAGTQAGAQACVSVAVSPMSPQDGAGGPAFSFQAAPRAPSPAPRPPSRRDAGLQVSLGAAETRSVATGPMTPQAAAPPAVPPVFPEVRVRPGSVLAAALAPQEATEPVRDVSWDEKGMTWEVYGASMEVEVLGMAIQKHLERQIEEHGRQGAPAPAPPPAVRAGPGRAGSVRTAPAEGAAKRPPGLFRALLQSVRRPRCCSRAGPTAE
B6: GRIN3 (protein, UniProt Q8BWS5 1-763)
chain: MGTVPDPLRVTKASIVAASGKEESRGESQSVSPQPAQPDNNASGIGNVPAELSLQLSAAAQALMQACVSESSQQDMASPGVFSEGEPVSPKQKTPDDFLLHGSKESAAPGLNATAQKELISAPCLISVVQHTHHAIQRDAPNTSTCAVPEGSLVKSEANSNGENPEKPGCPARVTCCSSKNQEGLCDFPSPENSQGILQTPDIASPSADRPEGEGQKVINNITAVSSEPPVREGCSENKQPSATALNTTAERSENPPPSHLTSKGATCSSEARQALLPAQYPVSRFKEASTMTCQAESGAKEVSGRAWQDAEVQAVASVESRSVSTSPSILPAYLKENPAPELENGQEQLRVICHGKGSGNHLLELSNSMVDSQESRQCPSIVPQVHIQAATATPAAFKGGCKPANQPAEGLKSPLIHVTSSQNTETEEDLRLSASKEATSRQPEGTNPDFQKANAIGQISLPAGSQAEINQGLWNSGPREPEIVVKTAKDHKAESSCKPSNSGGGANKDYPPESLDPTDKKGAKDKKPASPLIVKDHAPGATSTLDAKTLLLNPKSQVKEGEGPEVSPAPSPGRKSQQNTLEELRQPKTVMSLSLPSDGTGDSSPGSGKRTPSLSVKASPRRGSRVSEFLKELSVTAAAAQVGLTPGEKKKQLGADSKLHLKQSKRVRDVVWDDQGMTWEVYGASLDPESLGVAIQNHLQRQIREHEKIVKTQSGQTRRSISSDSSSSKKLKGRQHGVLQSMLQNFRRPNCCVRPAPSSVLD
B7: RGS20 (protein, UniProt Q9QZB1 1-239)
chain: MRTANGGPRARASPSASPADPGLPEGSERTEMRMRQMCGGSETQGPAPSQQGGRGSNACCFCWCCCCTCSCLTVRNQEDQRPQRASHEIRTDIPACEESPTPTLEEVCAWAQSFDNLMVTPAGRNAFREFLRTEFSEENMLFWMACEELKREANKSTIEEKARIIYEDYISILSPKEVSLDSRVREVINRNMVDPSQHIFDDAQLQIYTLMHRDSYPRFMNSTVYKDLLTSLAEKTVEA

Biological target: G⍺o, alpha subunit of the heterotrimeric G protein Go (native, mouse brain) (mouse (endogenous in mouse brain)) (UniProt P18872)
Experiment: affinity purification with mass spectrometry; G⍺o immunopurified (sc-13532) from GTPγS-pretreated mouse brain lysate, three independent lysates; LC-MS/MS; enrichment against G⍺o-GDP samples and isotype-matched control antibody samples

Q: For CDC42 (from UniProt P60766 1-191), which binding is on record?
A: binds

Q: Rap1GAP (from UniProt A2ALS5 1-663) was tested. Which binding did it give?
A: binds

Q: How did the binding turn out when “G⍺ inhibitory interacting protein (GINIP) (from UniProt Q80TL4 1-400)” was run?
A: binds

Q: How did the binding turn out when B1 was run?
A: binds

Q: Which binding does the source give for B2 here?
A: binds

Q: Which binding does the source give for B3 here?
A: binds

Q: Which binding does the source give for B4 here?
A: binds

Q: Which binding does the source give for B5 here?
A: binds

Q: Which binding does the source give for B6 here?
A: binds

Q: Which binding does the source give for B7 here?
A: binds
